From ChEMBL document CHEMBL3988442, “University of Dundee, Small-Polar-MMV Screening Library” (2021).

Chains of the proteins cited; added tags and fusions are not shown.
UniProt P9WFT3, whole entry: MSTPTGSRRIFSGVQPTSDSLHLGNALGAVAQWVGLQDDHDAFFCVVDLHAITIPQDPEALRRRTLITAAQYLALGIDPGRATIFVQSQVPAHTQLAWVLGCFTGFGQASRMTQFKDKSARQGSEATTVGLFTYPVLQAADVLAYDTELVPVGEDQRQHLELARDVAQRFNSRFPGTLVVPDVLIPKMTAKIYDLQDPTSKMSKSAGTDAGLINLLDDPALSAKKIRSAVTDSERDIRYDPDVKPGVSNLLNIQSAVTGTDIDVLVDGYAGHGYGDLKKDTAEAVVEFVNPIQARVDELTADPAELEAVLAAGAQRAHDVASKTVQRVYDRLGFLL

Leishmania in macrophages: 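Cell assay of Leishmania donovani living inside macrophages; the read-out is not stated. Concentration: 30 µM. Higher reads as stronger inhibition (inferred: compounds with an IC50 in retests scored well above the rest). Size under these conditions: about 69,000 compounds, about 1,000 of them at 50% or above in at least one test.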
MtTrpRS: 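Tryptophan-tRNA ligase, Mycobacterium tuberculosis (UniProt P9WFT3). Enzyme assay of tryptophanyl-tRNA synthetase; the read-out is not stated. Concentration: 10 µM. Direction is not recorded; retested compounds ran higher, which suggests that high means inhibition. Size under these conditions: about 65,000 compounds, about 64 of them at 50% or above in at least one test.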
T. brucei: 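Whole-parasite assay of Trypanosoma brucei over 72 hours; the read-out is not stated. Tested at 30 µM. Direction is inferred from retests: higher values go with stronger inhibition. Values scatter widely below zero; nearly all retest evidence comes from the higher of the two concentrations used. About 64,000 compounds were tested under these conditions; 1.5% (about 940) showed 50% or more at least once.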

Results are given as percent effect.
The record does not define 0% and 100%; most values in the screen are far below 50% and negative numbers occur (in some assays of this library far below -100).
Compounds were drawn at random from those tested, without regard to their results.
Two or more numbers in one place are separate tests of the same structure; such repeats can differ widely.
A dash means the value is not listed here; it may have been measured.

| SMILES | Leishmania in macrophages | MtTrpRS | T. brucei |
|---|---|---|---|
| `COCCS(=O)(=O)Nc1ccc(-n2cncn2)c(F)c1` | 8.983 | -8.424 | - |
| `Cc1ccc(C)c2c(=O)cc(CN3CC[C@@H](N)[C@H](O)C3)[nH]c12` | 13.9 | 3.425 | -11.48 |
| `CN(C)CCN1CC[C@@H]2[C@@H]1CCN2C(=O)c1cccc(Cl)c1` | - | -5.534 | - |
| `O=c1[nH]nc(CCCN2CCOCC2)n1-c1ccc(F)cc1F` | 27.14 | 10.65 | -23.64 |
| `Cc1cc(C)n(CC2CCCN2C(=O)c2ccc(C(N)=O)cn2)n1` (stereo not drawn) | -15.87 | -3.216 | 15.42 |
| `Cc1nc(C)n(CC2CCCCN2Cc2ncc(C(C)(C)C)o2)n1` (stereo not drawn) | 17.41 | 0.8793 | 13.64 |
| `Cc1nc(CN2CC3(CCN(c4ncc(F)cn4)C3)CC2=O)cs1.O=C(O)C(F)(F)F` (stereo not drawn) | 19.36 | - | 34.76 |
| `Cc1ccc(-c2noc(CCC3CCN(C)CC3)n2)nn1` | 3.978 | -6.74 | 6.648 |
| `CCc1cc(N(C)Cc2c(C)nn(C)c2C)n2nccc2n1` | 17.25 | 0.6299 | -0.4929 |
| `C=C(C)COCCNC(=O)Nc1cccc(Cn2nc(C)nc2C)c1` | -5.149 | 9.322 | -11.56 |
| `CC(Cn1cccn1)NCc1csc(COc2ccccc2)n1` (stereo not drawn) | 39.36 | -4.237 | 63.51 |
| `CC1(C(=O)N2CCOCC2)CN(Cc2ncc[nH]2)CCO1` (stereo not drawn) | 13.88 & -12.17 | - | -14.87 |
| `N#Cc1c(C2CC2)cc(-c2ccc(O)cc2)nc1N` | 11.87 | 1.086 | 17.72 |
| `CCNC(=O)c1ccc2c(c1)nc1n2CCN(Cc2ccco2)C1` | 18.69 | 0.3178 | 15.98 |
| `Cc1ccccc1C(N)c1ccncc1` (stereo not drawn) | - | -9.805 | - |
| `c1ccc(NC[C@@H]2CCC[C@@H]3CN(Cc4cc[nH]n4)C[C@@H]32)nc1` | - | -8.095 | - |
| `COCCO[C@H]1CCN(c2ccc(C)nn2)[C@H]1Cc1cccnc1.O=C(O)C(F)(F)F.O=C(O)C(F)(F)F` | 24.72 | - | -12.33 |
| `CCCN(CCO)S(=O)(=O)c1ccc2[nH]c(=O)[nH]c2c1` | -42.9 | 28.26 | -20.31 |
| `Cc1cc(C)n(CC2CCCN2CCc2ccncc2)n1` (stereo not drawn) | 18.77 | 3.786 | -22.01 |
| `O=C(c1ccc(S(=O)(=O)N2CCSCC2)cc1)N1CCCCCC1` | 15.69 | -1.694 | -3.625 |
| `CN(Cc1ccco1)C(=O)CN1C(=O)c2ccccc2C1=O` | 38.43 | 0.4823 | -28.39 |
| `O=C([C@@H]1CCCO1)N1CCN(Cc2ccncc2)c2ncccc2C1` | 39.65 | - | -59.9 |
| `O=C1CC[C@H]2[C@H](CCN2C(=O)c2ccc[nH]2)N1CCN1CCOCC1` | - | -1.652 | - |
| `Cc1noc(C)c1-c1cccc(CC2CCN(C(=O)CCC(=O)O)C2)n1` (stereo not drawn) | -2.061 | 3.763 | 11.16 |
| `O=C(CN1CCCC(Cn2cncn2)C1)NCCCc1ccccc1` (stereo not drawn) | 23.93 | -6.853 | 13.07 |
| `[H][C@@]12CCN(Cc3cnn(C)c3)C[C@@]1([H])O[C@H](c1nc(C3CC3)cs1)C2` | -19.86 | - | -14.91 |
| `CC(C)Sc1ncccc1C(=O)NCc1ccc(O)cc1` | 14.96 | -0.3313 | 14.86 |
| `[H][C@]12CN(C(=O)C3CCOCC3)CCN1C(=O)N(Cc1ccc(F)cc1)C2` | -14.45 | - | -13.43 |
| `COc1ccnc(N2CCN(C(=O)Cc3ccsc3)CC2)n1` | 3.828 | -3.135 | - |
| `CCOC(=O)CNC(=O)C1CN(C(=O)c2cnccn2)C1` | 29.5 & 6.359 | 1.14 | 5.511 |
| `Cc1nc(C)n(C2CCCN(C(=O)COc3ccccc3)C2)n1` (stereo not drawn) | 7.138 | 4.869 | -7.861 |
| `CC(O)CNC(=O)NCc1ccc(N2CCNC(=O)C2)cc1` (stereo not drawn) | 31.1 | 5.516 | 34.89 |
| `O=S(=O)(c1ccccc1Cl)N1CCC2(CC1)OCCS2` | -22.74 | 2.417 | -12.66 |
| `CCc1nnc(Nc2cccc(C3CCN(S(=O)(=O)N(C)C)CC3)n2)s1` | 7.021 | - | 1.598 |
| `CC(C)CC(=O)Nc1ccc2c(c1)ncn2CC(=O)NCCN(C)C` | 49.4 | -2.265 | -12.25 |
| `CC(C(=O)NCC1(c2c(F)cccc2F)CCCC1)S(C)(=O)=O` (stereo not drawn) | 9.299 | -2.386 | 11.63 |
| `CN(C)C(=O)N1CC2(CCNCC2)c2cc(Cl)ccc21.Cl` | -49.76 | - | -10.23 |
| `Cc1nn2c(NC(=O)CSc3ncccn3)csc2nc1=O` | 29.27 | -0.311 | -24.41 |
| `Cc1nc(NC(=O)CN2CCOC(Cn3cccn3)C2)sc1C` (stereo not drawn) | 10.34 | -0.5696 | 24.08 |
| `COC(=O)N1CCC(NC(=O)N2CCCC2c2ccsc2)CC1` (stereo not drawn) | 14.49 | 1.87 | -42.25 |
| `CC(=O)Nc1ccc(CNCC(O)c2ccccc2)cc1` (stereo not drawn) | -2.839 | -3.838 | 3.366 |
| `O=C(Cc1ccsc1)NC1CCc2c(ccc(=O)n2CC2CC2)C1` (stereo not drawn) | -0.08564 | 12.34 | - |
| `CC(C)c1nccn1C1CCCN(C(=O)c2ccc3[nH]nnc3c2)C1` (stereo not drawn) | 20.54 | 3.362 | -48.62 |
| `O=C(NCCSC1CCCC1)c1cc(Cl)ccn1` | 13.34 | 2.968 | -22.22 |
| `CCOCC1CN(CC2CCC2)Cc2nnn(CC3CC3)c21` (stereo not drawn) | 7.036 | - | -3.097 |
| `O=C(c1ccc[nH]1)N1CCN(CC2CCOc3ccccc3C2)CC1` (stereo not drawn) | -5.692 | 11.37 | -7.174 |
| `Cc1ccc(CCNc2ncc(C)c(-c3ccnn3C)n2)s1` | 45 | -2.835 | -32.81 |
| `O=C(c1ccccn1)N1CCC2(CC1)COC(COCC1CCCC1)C2` (stereo not drawn) | - | -2.964 | - |

5 of the entries, repeated:

{"smiles": "COCCS(=O)(=O)Nc1ccc(-n2cncn2)c(F)c1", "Leishmania in macrophages": 8.983, "MtTrpRS": -8.424}
{"smiles": "O=C1CC[C@H]2[C@H](CCN2C(=O)c2ccc[nH]2)N1CCN1CCOCC1", "MtTrpRS": -1.652}
{"smiles": "CC(Cn1cccn1)NCc1csc(COc2ccccc2)n1", "stereo": "stereo not drawn", "Leishmania in macrophages": 39.36, "MtTrpRS": -4.237, "T. brucei": 63.51}
{"smiles": "CCCN(CCO)S(=O)(=O)c1ccc2[nH]c(=O)[nH]c2c1", "Leishmania in macrophages": -42.9, "MtTrpRS": 28.26, "T. brucei": -20.31}
{"smiles": "O=C(c1ccc(S(=O)(=O)N2CCSCC2)cc1)N1CCCCCC1", "Leishmania in macrophages": 15.69, "MtTrpRS": -1.694, "T. brucei": -3.625}